The source of these data is the supplement of paper PMC6411743.

Amino acid sequences for entries named in this document (tags omitted). A change or cut given only in a name is not applied to a line headed by its entry.
UniProt Q96S97: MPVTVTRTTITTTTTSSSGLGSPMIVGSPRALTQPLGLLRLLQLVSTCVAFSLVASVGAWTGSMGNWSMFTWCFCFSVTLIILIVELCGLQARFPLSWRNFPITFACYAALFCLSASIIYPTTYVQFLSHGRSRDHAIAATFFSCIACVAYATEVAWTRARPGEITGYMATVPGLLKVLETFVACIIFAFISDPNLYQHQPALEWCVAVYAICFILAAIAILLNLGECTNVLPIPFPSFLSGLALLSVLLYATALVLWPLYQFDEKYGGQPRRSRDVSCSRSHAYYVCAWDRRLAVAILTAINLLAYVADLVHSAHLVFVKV
UniProt Q96FH0: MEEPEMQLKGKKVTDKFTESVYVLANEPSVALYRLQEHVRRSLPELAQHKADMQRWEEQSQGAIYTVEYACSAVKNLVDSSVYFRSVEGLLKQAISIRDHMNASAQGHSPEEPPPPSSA
UniProt Q96FS4: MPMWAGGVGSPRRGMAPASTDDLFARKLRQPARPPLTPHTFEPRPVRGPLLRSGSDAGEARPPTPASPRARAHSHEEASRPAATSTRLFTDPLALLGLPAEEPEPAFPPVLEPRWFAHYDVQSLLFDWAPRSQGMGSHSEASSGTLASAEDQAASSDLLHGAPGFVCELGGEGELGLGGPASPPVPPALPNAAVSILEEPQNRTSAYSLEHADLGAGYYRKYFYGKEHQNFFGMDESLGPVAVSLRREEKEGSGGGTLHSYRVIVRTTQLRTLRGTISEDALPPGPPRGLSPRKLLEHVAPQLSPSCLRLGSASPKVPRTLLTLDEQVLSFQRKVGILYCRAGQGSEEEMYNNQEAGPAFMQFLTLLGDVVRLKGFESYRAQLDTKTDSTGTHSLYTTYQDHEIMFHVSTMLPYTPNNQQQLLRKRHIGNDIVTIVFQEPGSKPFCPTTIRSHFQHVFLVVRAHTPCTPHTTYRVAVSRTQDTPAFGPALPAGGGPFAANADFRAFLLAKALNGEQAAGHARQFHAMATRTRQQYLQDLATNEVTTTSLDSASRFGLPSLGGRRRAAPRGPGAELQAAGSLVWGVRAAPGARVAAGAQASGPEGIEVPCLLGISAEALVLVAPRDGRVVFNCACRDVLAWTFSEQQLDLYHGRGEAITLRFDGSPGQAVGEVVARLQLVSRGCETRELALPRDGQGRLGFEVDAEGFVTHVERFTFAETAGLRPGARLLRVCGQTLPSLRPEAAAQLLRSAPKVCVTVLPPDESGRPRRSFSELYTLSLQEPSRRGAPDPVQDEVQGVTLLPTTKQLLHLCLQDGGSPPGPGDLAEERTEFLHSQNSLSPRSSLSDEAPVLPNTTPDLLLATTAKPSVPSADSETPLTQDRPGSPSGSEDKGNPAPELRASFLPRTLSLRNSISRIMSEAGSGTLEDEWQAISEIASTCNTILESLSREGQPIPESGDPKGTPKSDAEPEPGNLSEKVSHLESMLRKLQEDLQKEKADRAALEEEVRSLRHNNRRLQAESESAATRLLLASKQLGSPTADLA
UniProt Q96CN9: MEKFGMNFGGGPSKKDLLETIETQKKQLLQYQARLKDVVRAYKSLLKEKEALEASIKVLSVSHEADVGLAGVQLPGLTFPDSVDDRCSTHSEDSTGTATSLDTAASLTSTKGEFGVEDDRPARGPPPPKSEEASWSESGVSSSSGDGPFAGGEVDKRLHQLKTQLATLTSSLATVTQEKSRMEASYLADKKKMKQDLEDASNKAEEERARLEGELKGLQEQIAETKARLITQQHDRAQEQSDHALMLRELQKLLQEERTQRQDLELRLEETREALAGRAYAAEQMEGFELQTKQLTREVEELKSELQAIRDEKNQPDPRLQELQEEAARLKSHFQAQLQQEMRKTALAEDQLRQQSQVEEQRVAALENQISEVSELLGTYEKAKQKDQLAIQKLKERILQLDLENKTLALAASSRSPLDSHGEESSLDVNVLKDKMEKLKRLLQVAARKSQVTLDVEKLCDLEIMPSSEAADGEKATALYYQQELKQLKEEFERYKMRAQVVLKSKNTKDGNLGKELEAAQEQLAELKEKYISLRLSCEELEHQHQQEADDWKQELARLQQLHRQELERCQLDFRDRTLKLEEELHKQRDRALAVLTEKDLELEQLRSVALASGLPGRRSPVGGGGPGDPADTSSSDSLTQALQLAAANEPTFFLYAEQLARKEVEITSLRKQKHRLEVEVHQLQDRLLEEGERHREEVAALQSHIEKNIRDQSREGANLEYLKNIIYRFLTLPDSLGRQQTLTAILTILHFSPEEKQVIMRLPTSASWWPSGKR
UniProt Q96N64: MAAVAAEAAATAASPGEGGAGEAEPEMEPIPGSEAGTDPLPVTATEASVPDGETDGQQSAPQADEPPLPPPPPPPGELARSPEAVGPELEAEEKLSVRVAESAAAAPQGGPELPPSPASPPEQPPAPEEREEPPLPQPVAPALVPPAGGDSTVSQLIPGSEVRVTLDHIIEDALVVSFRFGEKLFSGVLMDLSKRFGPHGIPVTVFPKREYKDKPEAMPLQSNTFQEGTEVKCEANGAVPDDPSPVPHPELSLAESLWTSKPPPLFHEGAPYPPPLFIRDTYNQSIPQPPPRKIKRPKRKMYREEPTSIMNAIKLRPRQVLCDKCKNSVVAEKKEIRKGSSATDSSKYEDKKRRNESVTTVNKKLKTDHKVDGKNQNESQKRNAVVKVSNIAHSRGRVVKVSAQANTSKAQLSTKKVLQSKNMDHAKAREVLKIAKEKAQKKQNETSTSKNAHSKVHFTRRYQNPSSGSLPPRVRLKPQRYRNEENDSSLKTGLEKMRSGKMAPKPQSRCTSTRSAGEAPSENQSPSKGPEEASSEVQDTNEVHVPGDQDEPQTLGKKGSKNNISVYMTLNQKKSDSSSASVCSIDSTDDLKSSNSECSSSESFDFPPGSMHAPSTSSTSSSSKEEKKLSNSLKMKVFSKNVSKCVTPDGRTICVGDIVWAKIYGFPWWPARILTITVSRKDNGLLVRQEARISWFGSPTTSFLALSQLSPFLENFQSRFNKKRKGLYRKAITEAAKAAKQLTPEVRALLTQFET
UniProt Q96SU4: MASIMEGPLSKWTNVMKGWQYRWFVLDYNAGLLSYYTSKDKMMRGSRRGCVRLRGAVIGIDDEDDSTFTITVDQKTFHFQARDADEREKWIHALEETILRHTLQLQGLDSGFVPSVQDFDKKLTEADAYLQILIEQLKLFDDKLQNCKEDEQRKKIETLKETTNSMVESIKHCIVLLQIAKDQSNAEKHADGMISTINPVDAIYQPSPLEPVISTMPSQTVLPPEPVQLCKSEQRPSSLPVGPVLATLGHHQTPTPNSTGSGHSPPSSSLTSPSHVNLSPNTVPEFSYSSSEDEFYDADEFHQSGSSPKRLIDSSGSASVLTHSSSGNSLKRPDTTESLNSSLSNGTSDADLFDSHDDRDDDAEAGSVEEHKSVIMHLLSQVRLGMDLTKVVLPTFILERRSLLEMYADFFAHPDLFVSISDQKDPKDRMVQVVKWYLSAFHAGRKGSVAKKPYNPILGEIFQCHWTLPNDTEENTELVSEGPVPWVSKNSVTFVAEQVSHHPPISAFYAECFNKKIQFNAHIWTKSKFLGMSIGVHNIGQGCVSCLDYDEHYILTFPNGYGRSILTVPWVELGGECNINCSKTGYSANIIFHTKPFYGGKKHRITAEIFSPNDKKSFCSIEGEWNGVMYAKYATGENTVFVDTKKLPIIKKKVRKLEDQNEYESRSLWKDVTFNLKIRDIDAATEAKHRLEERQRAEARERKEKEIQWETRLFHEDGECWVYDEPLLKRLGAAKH
UniProt Q96SI9: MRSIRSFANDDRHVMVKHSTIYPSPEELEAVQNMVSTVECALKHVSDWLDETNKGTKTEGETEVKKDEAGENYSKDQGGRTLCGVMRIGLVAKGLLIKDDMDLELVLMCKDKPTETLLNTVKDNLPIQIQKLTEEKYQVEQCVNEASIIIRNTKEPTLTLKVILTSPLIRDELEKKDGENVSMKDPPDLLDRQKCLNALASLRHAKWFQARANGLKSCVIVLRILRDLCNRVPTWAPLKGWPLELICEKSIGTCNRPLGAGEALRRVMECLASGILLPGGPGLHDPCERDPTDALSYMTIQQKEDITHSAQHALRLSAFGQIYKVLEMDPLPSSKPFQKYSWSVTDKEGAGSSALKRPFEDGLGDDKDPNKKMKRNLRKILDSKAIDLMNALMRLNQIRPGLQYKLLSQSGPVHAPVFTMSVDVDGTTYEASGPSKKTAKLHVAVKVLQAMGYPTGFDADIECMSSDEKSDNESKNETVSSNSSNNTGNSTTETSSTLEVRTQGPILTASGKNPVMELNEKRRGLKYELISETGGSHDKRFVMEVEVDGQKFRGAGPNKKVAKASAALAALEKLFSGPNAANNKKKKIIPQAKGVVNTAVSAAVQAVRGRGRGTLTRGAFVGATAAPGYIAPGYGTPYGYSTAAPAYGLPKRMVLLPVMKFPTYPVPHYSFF
UniProt Q96KF7: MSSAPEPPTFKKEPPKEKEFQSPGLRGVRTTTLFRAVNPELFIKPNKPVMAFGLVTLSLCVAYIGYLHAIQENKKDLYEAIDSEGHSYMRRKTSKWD
UniProt Q96LJ7: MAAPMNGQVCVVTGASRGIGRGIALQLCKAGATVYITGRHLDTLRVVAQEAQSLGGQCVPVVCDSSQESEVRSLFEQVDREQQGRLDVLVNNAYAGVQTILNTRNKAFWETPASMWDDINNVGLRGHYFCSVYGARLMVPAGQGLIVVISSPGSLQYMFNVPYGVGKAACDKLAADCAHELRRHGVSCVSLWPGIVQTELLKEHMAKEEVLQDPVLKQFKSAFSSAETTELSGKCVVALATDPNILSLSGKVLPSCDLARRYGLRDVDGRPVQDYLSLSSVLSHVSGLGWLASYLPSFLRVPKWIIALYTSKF
UniProt Q96S59, whole entry: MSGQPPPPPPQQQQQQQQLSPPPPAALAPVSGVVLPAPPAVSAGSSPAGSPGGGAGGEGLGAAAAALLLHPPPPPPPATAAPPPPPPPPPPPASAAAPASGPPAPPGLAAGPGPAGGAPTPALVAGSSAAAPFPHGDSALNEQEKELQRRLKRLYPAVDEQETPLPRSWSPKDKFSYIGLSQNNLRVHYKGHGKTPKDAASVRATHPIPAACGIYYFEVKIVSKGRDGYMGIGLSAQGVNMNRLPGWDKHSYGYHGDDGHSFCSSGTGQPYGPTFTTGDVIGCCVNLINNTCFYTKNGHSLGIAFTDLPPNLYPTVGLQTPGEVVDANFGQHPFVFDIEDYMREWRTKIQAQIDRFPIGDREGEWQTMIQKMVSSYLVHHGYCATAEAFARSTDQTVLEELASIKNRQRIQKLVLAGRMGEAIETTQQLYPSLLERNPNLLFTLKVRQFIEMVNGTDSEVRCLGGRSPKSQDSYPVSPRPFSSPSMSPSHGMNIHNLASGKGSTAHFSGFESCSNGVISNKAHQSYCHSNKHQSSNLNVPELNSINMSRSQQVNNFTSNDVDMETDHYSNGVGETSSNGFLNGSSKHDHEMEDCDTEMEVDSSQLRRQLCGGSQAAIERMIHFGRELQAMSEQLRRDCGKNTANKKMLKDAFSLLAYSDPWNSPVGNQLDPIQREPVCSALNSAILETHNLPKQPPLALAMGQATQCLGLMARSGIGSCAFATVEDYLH
UniProt Q96EY8: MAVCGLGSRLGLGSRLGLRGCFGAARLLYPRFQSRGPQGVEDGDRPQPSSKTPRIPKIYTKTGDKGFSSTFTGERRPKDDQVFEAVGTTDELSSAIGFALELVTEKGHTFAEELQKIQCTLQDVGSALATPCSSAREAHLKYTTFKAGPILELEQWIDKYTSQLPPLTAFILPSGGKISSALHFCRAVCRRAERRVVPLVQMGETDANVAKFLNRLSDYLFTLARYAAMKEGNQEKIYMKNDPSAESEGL
UniProt Q96PU8: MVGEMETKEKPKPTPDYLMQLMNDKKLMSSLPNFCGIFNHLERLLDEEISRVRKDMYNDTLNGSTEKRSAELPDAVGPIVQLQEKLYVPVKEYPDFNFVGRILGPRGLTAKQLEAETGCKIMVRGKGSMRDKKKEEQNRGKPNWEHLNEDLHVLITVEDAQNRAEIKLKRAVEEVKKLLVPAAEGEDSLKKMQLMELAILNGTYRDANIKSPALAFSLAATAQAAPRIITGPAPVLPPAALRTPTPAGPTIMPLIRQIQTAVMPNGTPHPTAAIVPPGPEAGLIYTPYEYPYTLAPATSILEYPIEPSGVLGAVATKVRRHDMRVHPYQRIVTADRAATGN
UniProt Q96IZ6: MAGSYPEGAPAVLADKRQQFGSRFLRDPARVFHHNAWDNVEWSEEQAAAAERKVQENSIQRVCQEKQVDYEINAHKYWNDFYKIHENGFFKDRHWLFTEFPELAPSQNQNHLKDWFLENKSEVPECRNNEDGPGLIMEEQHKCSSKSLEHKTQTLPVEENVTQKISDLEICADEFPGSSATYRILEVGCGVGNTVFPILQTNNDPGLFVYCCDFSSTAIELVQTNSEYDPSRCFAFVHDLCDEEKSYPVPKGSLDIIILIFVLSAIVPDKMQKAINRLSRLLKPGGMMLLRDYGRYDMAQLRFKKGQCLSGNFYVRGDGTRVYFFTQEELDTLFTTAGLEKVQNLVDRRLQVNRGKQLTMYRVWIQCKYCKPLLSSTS

Compound in this assay: Nc1ncnc2c1ncn2[C@@H]1O[C@H](COP(=O)(O)OP(=O)(O)OP(=O)(O)O)[C@@H](O)[C@H]1O [adenosine triphosphate]
Nature of the assay: NP40-soluble protein abundance relative to vehicle (solubility fold change) (ratio); higher = more soluble protein in presence of ATP. The essentials:
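Eight concentrations, 0.1 to 10 mM, were tested on Jurkat crude lysate for 10 min at room temperature and then 3 min at 37 °C, in three independent experiments. The lysate was solubilised with 0.8% NP40 and benzonase, ultracentrifuged, and the supernatant TMT-labelled for LC-MS/MS. Each value is the fold change against the detergent-processed vehicle in its own replicate, from vsn-normalised intensities.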

± gives the standard deviation of the averaged measurements. This is a selection; strong and weak results do not stand in their true shares. Most entries show no effect beyond the scatter of the controls.

As for SPEN (UniProt Q96T58), the NP40-soluble protein abundance is, setting by setting: (concentration: 0.1mM) 1.031 ± 0.0038; (concentration: 0.5mM) 1.08 ± 0.024.

Regarding UniProt Q96T21 and related entries, the NP40-soluble protein abundance is, setting by setting: (concentration: 0.1mM) 0.947 ± 0.038; (concentration: 0.5mM) 0.967 ± 0.081.

With UniProt Q96S97 and related entries, the NP40-soluble protein abundance (concentration: 0.1mM) was determined as 1.08 ± 0.022 and the NP40-soluble protein abundance (concentration: 0.5mM) was found to be 1.05 ± 0.059.

With UniProt Q96FH0 and related entries, the NP40-soluble protein abundance reads like this: (concentration: 0.1mM) 0.831 ± 0.086; (concentration: 0.5mM) 0.858 ± 0.0099.

Turning to ZC3HAV1L (UniProt Q96H79), the NP40-soluble protein abundance runs as follows: (concentration: 0.1mM) 1 ± 0.037; (concentration: 0.5mM) 0.993 ± 0.048.

With UniProt Q96K49 and related entries, the NP40-soluble protein abundance runs as follows: (concentration: 0.1mM) 1.04 ± 0.047; (concentration: 0.5mM) 0.969 ± 0.039.

C9orf72 (UniProt Q96LT7): the NP40-soluble protein abundance came to 1.15 ± 0.27 (concentration: 0.1mM) and 0.9953 ± 0.0061 (concentration: 0.5mM).

As to KTI12 (UniProt Q96EK9), the NP40-soluble protein abundance came out at 0.938 ± 0.12 (concentration: 0.1mM) and 0.929 ± 0.12 (concentration: 0.5mM).

For the target ANKRD27 (UniProt Q96NW4), the NP40-soluble protein abundance (concentration: 0.1mM) worked out at 1.06 ± 0.06 and the NP40-soluble protein abundance (concentration: 0.5mM) was determined as 1 ± 0.034.

Take DCPS (UniProt Q96C86): the NP40-soluble protein abundance reads like this: (concentration: 0.1mM) 1.04 ± 0.062; (concentration: 0.5mM) 1.05 ± 0.057.

As for UniProt Q96RN5 and related entries, the NP40-soluble protein abundance stood at 0.92 ± 0.1 (concentration: 0.1mM) and 0.976 ± 0.12 (concentration: 0.5mM).

For ISOC1 (UniProt Q96CN7), the NP40-soluble protein abundance (concentration: 0.1mM) was 1.02 ± 0.087 and the NP40-soluble protein abundance (concentration: 0.5mM) came to 0.99 ± 0.024.

With SIPA1 (UniProt Q96FS4), the NP40-soluble protein abundance by setting is: (concentration: 0.1mM) 0.909 ± 0.046; (concentration: 0.5mM) 0.911 ± 0.017.

On to TRMT61A (UniProt Q96FX7), for which the NP40-soluble protein abundance (concentration: 0.1mM) came to 1.03 ± 0.025 and the NP40-soluble protein abundance (concentration: 0.5mM) was determined as 1.02 ± 0.014.

Regarding UniProt Q96L92 and related entries, the NP40-soluble protein abundance is, setting by setting: (concentration: 0.1mM) 1.03 ± 0.069; (concentration: 0.5mM) 1.01 ± 0.051.

As to GCC1 (UniProt Q96CN9), the NP40-soluble protein abundance by setting is: (concentration: 0.1mM) 0.987 ± 0.027; (concentration: 0.5mM) 0.977 ± 0.059.

Take CHMP6 (UniProt Q96FZ7): the NP40-soluble protein abundance runs as follows: (concentration: 0.1mM) 0.883 ± 0.081; (concentration: 0.5mM) 0.869 ± 0.1.

Take PWWP2A (UniProt Q96N64): the NP40-soluble protein abundance by setting is: (concentration: 0.1mM) 0.946 ± 0.065; (concentration: 0.5mM) 0.923 ± 0.075.

Turning to SNRNP40 (UniProt Q96DI7), the NP40-soluble protein abundance turned out to be 0.975 ± 0.03 (concentration: 0.1mM) and 1.03 ± 0.048 (concentration: 0.5mM).

On to EAF1 (UniProt Q96JC9), for which the NP40-soluble protein abundance turned out to be 0.904 ± 0.038 (concentration: 0.1mM) and 0.908 ± 0.019 (concentration: 0.5mM).

For the target FAM136A (UniProt Q96C01), the NP40-soluble protein abundance is, setting by setting: (concentration: 0.1mM) 0.902 ± 0.089; (concentration: 0.5mM) 0.908 ± 0.14.

UniProt Q96DU3-2|Q96DU3: the NP40-soluble protein abundance is 0.931 ± 0.038 (concentration: 0.1mM) and 0.872 ± 0.084 (concentration: 0.5mM).

Consider UniProt Q96PM5 and related entries, for which the NP40-soluble protein abundance was 1.12 ± 0.095 (concentration: 0.1mM) and 1.03 ± 0.083 (concentration: 0.5mM).

For the target CDCA5 (UniProt Q96FF9), the NP40-soluble protein abundance was determined as 0.989 ± 0.074 (concentration: 0.1mM) and 1.012 ± 0.0074 (concentration: 0.5mM).

Regarding UniProt Q96EB1 and related entries, the NP40-soluble protein abundance (concentration: 0.1mM) was determined as 0.988 ± 0.014 and the NP40-soluble protein abundance (concentration: 0.5mM) stood at 1.008 ± 0.01.

Consider UniProt Q96GC9, for which the NP40-soluble protein abundance is, setting by setting: (concentration: 0.1mM) 0.994 ± 0.028; (concentration: 0.5mM) 0.951 ± 0.057.

UniProt Q96RR4 and related entries: the NP40-soluble protein abundance (concentration: 0.1mM) amounted to 1.07 ± 0.036 and the NP40-soluble protein abundance (concentration: 0.5mM) amounted to 1.09 ± 0.095.

As to OSBPL9 (UniProt Q96SU4), the NP40-soluble protein abundance reads like this: (concentration: 0.1mM) 1.01 ± 0.039; (concentration: 0.5mM) 1.03 ± 0.025.

On to STRBP (UniProt Q96SI9), for which the NP40-soluble protein abundance (concentration: 0.1mM) was 0.974 ± 0.034 and the NP40-soluble protein abundance (concentration: 0.5mM) was 0.985 ± 0.053.

On to UniProt Q96S66 and related entries, for which the NP40-soluble protein abundance was 1.01 ± 0.058 (concentration: 0.1mM) and 1 ± 0.052 (concentration: 0.5mM).

Take CHCHD1 (UniProt Q96BP2): the NP40-soluble protein abundance was 1.01 ± 0.085 (concentration: 0.1mM) and 0.973 ± 0.21 (concentration: 0.5mM).

For the target IFT140 (UniProt Q96RY7), the NP40-soluble protein abundance (concentration: 0.1mM) turned out to be 1.04 ± 0.065 and the NP40-soluble protein abundance (concentration: 0.5mM) turned out to be 1.04 ± 0.11.

Take RSPRY1 (UniProt Q96DX4): the NP40-soluble protein abundance worked out at 1.05 ± 0.062 (concentration: 0.1mM) and 1.1 ± 0.12 (concentration: 0.5mM).

Take UniProt Q96L93 and related entries: the NP40-soluble protein abundance came out at 1.08 ± 0.055 (concentration: 0.1mM) and 1.04 ± 0.052 (concentration: 0.5mM).

For the target NARS2 (UniProt Q96I59), the NP40-soluble protein abundance reads like this: (concentration: 0.1mM) 1.07 ± 0.084; (concentration: 0.5mM) 1.01 ± 0.073.

Regarding PPP1R10 (UniProt Q96QC0), the NP40-soluble protein abundance reads like this: (concentration: 0.1mM) 0.982 ± 0.011; (concentration: 0.5mM) 1.01 ± 0.026.

Take UniProt Q96EK5: the NP40-soluble protein abundance (concentration: 0.1mM) is 1 ± 0.043 and the NP40-soluble protein abundance (concentration: 0.5mM) stood at 0.973 ± 0.034.

With UniProt Q96JQ2, the NP40-soluble protein abundance by setting is: (concentration: 0.1mM) 0.953 ± 0.14; (concentration: 0.5mM) 0.945 ± 0.017.

On to UniProt Q96KF7, for which the NP40-soluble protein abundance by setting is: (concentration: 0.1mM) 1.06 ± 0.071; (concentration: 0.5mM) 0.994 ± 0.071.

Turning to UHRF2 (UniProt Q96PU4), the NP40-soluble protein abundance by setting is: (concentration: 0.1mM) 1.04 ± 0.041; (concentration: 0.5mM) 1.04 ± 0.035.

On to DHRS1 (UniProt Q96LJ7), for which the NP40-soluble protein abundance was found to be 1.05 ± 0.069 (concentration: 0.1mM) and 1.07 ± 0.036 (concentration: 0.5mM).

Regarding RMI2 (UniProt Q96E14), the NP40-soluble protein abundance reads like this: (concentration: 0.1mM) 0.97 ± 0.095; (concentration: 0.5mM) 0.915 ± 0.11.

For the target UniProt Q96BX8, the NP40-soluble protein abundance was found to be 1.02 ± 0.061 (concentration: 0.1mM) and 1.01 ± 0.052 (concentration: 0.5mM).

For RANBP9 (UniProt Q96S59), the NP40-soluble protein abundance worked out at 0.987 ± 0.045 (concentration: 0.1mM) and 0.977 ± 0.072 (concentration: 0.5mM).

On to UniProt Q96MT7-2, for which the NP40-soluble protein abundance (concentration: 0.1mM) was 1.03 ± 0.059 and the NP40-soluble protein abundance (concentration: 0.5mM) was 1.01 ± 0.025.

Take UniProt Q96PV6-2: the NP40-soluble protein abundance amounted to 0.986 ± 0.02 (concentration: 0.1mM) and 1.05 ± 0.027 (concentration: 0.5mM).

Turning to UniProt Q96RT1 and related entries, the NP40-soluble protein abundance runs as follows: (concentration: 0.1mM) 1 ± 0.026; (concentration: 0.5mM) 1 ± 0.048.

For the target UniProt Q96P50 and related entries, the NP40-soluble protein abundance (concentration: 0.1mM) turned out to be 1.07 ± 0.018 and the NP40-soluble protein abundance (concentration: 0.5mM) was determined as 1.069 ± 0.006.

In the case of ATAD5 (UniProt Q96QE3), the NP40-soluble protein abundance runs as follows: (concentration: 0.1mM) 1.09 ± 0.12; (concentration: 0.5mM) 1.09 ± 0.12.

Regarding UniProt Q96EH3, the NP40-soluble protein abundance runs as follows: (concentration: 0.1mM) 1.12 ± 0.043; (concentration: 0.5mM) 1.07 ± 0.082.

Regarding PRRC1 (UniProt Q96M27), the NP40-soluble protein abundance worked out at 0.968 ± 0.032 (concentration: 0.1mM) and 0.954 ± 0.019 (concentration: 0.5mM).

With MMAB (UniProt Q96EY8), the NP40-soluble protein abundance is, setting by setting: (concentration: 0.1mM) 0.991 ± 0.028; (concentration: 0.5mM) 0.954 ± 0.012.

For the target UniProt Q96DC7 and related entries, the NP40-soluble protein abundance reads like this: (concentration: 0.1mM) 1.08 ± 0.14; (concentration: 0.5mM) 0.974 ± 0.08.

On to UniProt Q96BW9-2|Q96BW9-3|Q96BW9, for which the NP40-soluble protein abundance reads like this: (concentration: 0.1mM) 1.026 ± 0.0049; (concentration: 0.5mM) 1.15 ± 0.028.

Take UniProt Q96PU8 and related entries: the NP40-soluble protein abundance was 0.957 ± 0.039 (concentration: 0.1mM) and 0.953 ± 0.056 (concentration: 0.5mM).

Take C8orf37 (UniProt Q96NL8): the NP40-soluble protein abundance (concentration: 0.1mM) amounted to 0.909 ± 0.073 and the NP40-soluble protein abundance (concentration: 0.5mM) stood at 0.88 ± 0.079.

As for UniProt Q96SB3 and related entries, the NP40-soluble protein abundance (concentration: 0.1mM) came out at 0.867 ± 0.08 and the NP40-soluble protein abundance (concentration: 0.5mM) is 0.865 ± 0.12.

For MRPL53 (UniProt Q96EL3), the NP40-soluble protein abundance turned out to be 0.886 ± 0.17 (concentration: 0.1mM) and 0.875 ± 0.13 (concentration: 0.5mM).

As for OPTN (UniProt Q96CV9), the NP40-soluble protein abundance (concentration: 0.1mM) was 1.004 ± 0.0097 and the NP40-soluble protein abundance (concentration: 0.5mM) was 0.966 ± 0.013.

Take METTL2A (UniProt Q96IZ6): the NP40-soluble protein abundance reads like this: (concentration: 0.1mM) 0.997 ± 0.082; (concentration: 0.5mM) 0.944 ± 0.099.

For UniProt Q96RP9 and related entries, the NP40-soluble protein abundance is 1.04 ± 0.053 (concentration: 0.1mM) and 1.05 ± 0.053 (concentration: 0.5mM).

As for UniProt Q96S55 and related entries, the NP40-soluble protein abundance (concentration: 0.1mM) worked out at 1.05 ± 0.014 and the NP40-soluble protein abundance (concentration: 0.5mM) was found to be 1.03 ± 0.047.
